Laboratory results: PubChem BioAssay AID1259308 (NCATS, 2017)

- Screen: 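Candidate targets for better recombinant protein yield in mammalian cells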 (primary screen)
- System: human HEK293 embryonic kidney cells stably expressing firefly luciferase (HEK-CMV-Luc2-Hygro)
- Reagents: single siRNA against human genes, 0.8 pmol siRNA per well
- Duration: 72 h
- Measurement: 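Luciferase light (ONE-Glo) measured on one replicate plate set and viability (CellTiter-Glo) on the other, scaled to a negative control siRNA, with robust z-scores and luciferase per cell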
- Reading the numbers: total luciferase, z-score: higher = more reporter protein produced
- Call rule: 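An siRNA counts as active if its total luciferase robust z-score exceeds 3; genes with two or more such siRNAs out of three were retested with fresh siRNAs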
- Calls: active = raised luciferase; inactive = no rise
Shown is a random part of about 59,000 reagents tested. Of all reagents, about 1,510 (2.6%) got an active call. 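Calls use total luciferase alone and ignore viability, so some active siRNAs may act by altering cell number.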 Reagents against one gene are numbered here. Not all columns of the deposit are shown. Reagent sequences are not shown.

What is on record for PRSS27 #1?
total luciferase, z-score: -1.77; call: inactive

What is on record for PRSS27 #2?
total luciferase, z-score: 0.195; call: inactive

Which result is listed for PRSS27 #3?
total luciferase, z-score: 2.73; call: inactive

How did the screen score HCRT #1?
total luciferase, z-score: 0.321; call: inactive

For HCRT #2, what was measured?
total luciferase, z-score: 1.95; call: inactive

With HCRT #3, how do the results read?
total luciferase, z-score: 0.619; call: inactive

With DUOX1 #1, what does the deposit list?
total luciferase, z-score: -0.244; call: inactive

For DUOX1 #2, what was measured?
total luciferase, z-score: -1.27; call: inactive

Which result is listed for DUOX1 #3?
total luciferase, z-score: -0.056; call: inactive

For PRR36 #1, what was measured?
total luciferase, z-score: 0.346; call: inactive

For PRR36 #2, what was measured?
total luciferase, z-score: 2.64; call: inactive

With PRR36 #3, what does the deposit list?
total luciferase, z-score: 0.383; call: inactive

What is on record for B4GALT7 #1?
total luciferase, z-score: -2.33; call: inactive

With B4GALT7 #2, what does the deposit list?
total luciferase, z-score: -0.158; call: inactive

With B4GALT7 #3, what does the deposit list?
total luciferase, z-score: 1.03; call: inactive

With RASIP1 #1, how do the results read?
total luciferase, z-score: 1.23; call: inactive

What is on record for RASIP1 #2?
total luciferase, z-score: 0.683; call: inactive

Which result is listed for RASIP1 #3?
total luciferase, z-score: -0.975; call: inactive

For LEF1 #1, what was measured?
total luciferase, z-score: 0.561; call: inactive

With LEF1 #2, how do the results read?
total luciferase, z-score: -0.148; call: inactive

What did the screen give for LEF1 #3?
total luciferase, z-score: 0.793; call: inactive

With DSN1 #1, what was measured?
total luciferase, z-score: 1.54; call: inactive

With DSN1 #2, how do the results read?
total luciferase, z-score: -0.497; call: inactive

What is on record for DSN1 #3?
total luciferase, z-score: -0.82; call: inactive

How did the screen score MTMR4 #1?
total luciferase, z-score: -0.0894; call: inactive

For MTMR4 #2, what was measured?
total luciferase, z-score: -2.47; call: inactive

How did the screen score MTMR4 #3?
total luciferase, z-score: 0.612; call: inactive

Which result is listed for SRI #1?
total luciferase, z-score: 0.425; call: inactive

Which result is listed for SRI #2?
total luciferase, z-score: 1.75; call: inactive

For SRI #3, what was measured?
total luciferase, z-score: 1.59; call: inactive

For ACADM #1, how do the results read?
total luciferase, z-score: -0.682; call: inactive

With ACADM #2, what does the deposit list?
total luciferase, z-score: -0.2; call: inactive

What did the screen give for ACADM #3?
total luciferase, z-score: 0.0587; call: inactive

Part of the list above in another layout:
gene symbol | reagent no. | total luciferase, z-score | call
SRI | 1 | 0.425 | inactive
SRI | 2 | 1.75 | inactive
